# Out of some 340,000 compounds screened, about 6,200 (1.8%) were called active. This list was built around the results that the source calls inconclusive (neither active nor inactive); the mix of calls is not that of the screen. Calls follow the shape of the dose curve; as a rule, active = well fitted activation curve with a large enough effect; inconclusive = small, poorly fitted or top-dose-only effect; inactive = no such curve, though single readings can be large or run the other way. Where the call is inconclusive, the potency comes from a doubtful curve fit.
# Assay: A quantitative high throughput screen for small molecules that induce DNA re-replication in SW480 colon adenocarcinoma cells. Also: nearly all actives have a fitted effect of over 55% in size. As to re-replication activation: % of control where 0% means no effect.
# Conditions: Hoechst DNA content imaging, 48 h; re-replication activation: at 46.1 µM (top of the series) unless noted
# Summary of the method: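 Image-based DNA-content assay: after two days of treatment, nuclei were labelled with the DNA dye Hoechst and imaged, and hits were compounds raising the count of nuclei showing high fluorescence intensity.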
# Potency is read from the fitted curve at half-maximal effect.
SMILES,Potency,re-replication activation
O=C1/C(=C\c2ccccn2)SC(=S)N1c1ccc(S(=O)(=O)Nc2nccs2)cc1,"inconclusive: 4.61 µM [activator, single point]",
COC(=O)c1nn(-c2ccc(OC)cc2)c(=O)c2c(N)sc(C)c12,active: 29.1 µM,
COc1ccccc1N1CCN(C(=O)c2cc3n(n2)C(C(F)(F)F)CC(c2ccco2)N3)CC1 (stereo not drawn),inactive,
C[C@@H]1ON(C)[C@H]2C[C@H]3c4cc(N5CCOCC5)ccc4CCN3C(=O)[C@@H]12,"inconclusive: 1.16 µM [activator, single point]",
CCCCOC(=O)c1ccc(NC(=O)c2c(N)n(C)c(=O)[nH]c2=O)cc1,"inconclusive: 0.517 µM [activator, full curve]",
CC(C)(C)NCc1ccc(OCc2cccs2)cc1,"inconclusive: 0.146 µM [activator, single point]",
CCOC(=O)C1CCN(C(=O)/C(=C/c2ccccc2)NC(=O)c2ccccc2)CC1,"inconclusive: 29.1 µM [activator, partial curve, poor fit]",
N#Cc1ccc(/C=C\c2nccc3c2[nH]c2ccccc23)cc1,active: 2.06 µM,
COc1ccc(OC)c(Nc2nc(-c3ccncc3)nc3ccccc23)c1,"inconclusive: 25.9 µM [activator, single point]",
CC[C@H](C)/C=C/C1=CC2=C(Cl)C(=O)[C@@]3(C)OC(=O)C(C(=O)[C@H](C)[C@@H](C)O)=C3C2=CO1,inactive,
Cc1sc(NC(=O)c2sc3nc4c(C)cccc4cc3c2N)c(C#N)c1C,"inconclusive: 23.1 µM [activator, single point]",
O=S(=O)(c1ccccc1)N1CCN=C1SCc1ccc(Cl)c(Cl)c1,"inconclusive: 0.231 µM [activator, full curve, poor fit]",
Cc1[nH]nc2nc(SCC(=O)NC3CCCCC3)n(-c3ccc(Br)cc3)c(=N)c12,"inconclusive: 29.1 µM [activator, single point]",
NS(=O)(=O)c1ccc(CCNc2nc3c(-c4cccc(F)c4)nnn3c3ccccc23)cc1,"inconclusive: 11.2 µM [activator, partial curve, poor fit]",
OC(CN1CCCCC1)c1ccc2c3c(cccc13)CC2 (stereo not drawn),"inconclusive: 20.6 µM [activator, single point]",
CC(=O)NC1=NC(=O)/C(=C/c2cn(C(C)=O)nc2-c2ccccc2)S1,"inconclusive: 14.6 µM [activator, single point]",
O=C(NNC(=O)C1CCCO1)c1ccc([N+](=O)[O-])cc1 (stereo not drawn),"inconclusive: 6.51 µM [activator, full curve]",
Cc1ccc(S(=O)(=O)N2CCC(=O)N(C(COCc3cccc(C)c3)Cc3ccccc3)CC2)cc1 (stereo not drawn),"inconclusive: 29.1 µM [activator, single point]",
O=C1c2ccccc2S(=O)(=O)c2cc(N3CCN(c4ccccc4)CC3)ccc21,"inconclusive: 23.1 µM [activator, partial curve, poor fit]",
O=C(c1cc2c(s1)CCCC2)N1CCN(CCO)CC1,inactive,
CC1CCCN(C(=O)c2ccc(OC3CCN(CCc4ccccc4)CC3)cc2)C1 (stereo not drawn),"inconclusive: 18.4 µM [activator, single point]",

# In a second layout: results already given.
SMILES	Potency	re-replication activation
N#Cc1ccc(/C=C\c2nccc3c2[nH]c2ccccc23)cc1	active: 2.06 µM	
CC(=O)NC1=NC(=O)/C(=C/c2cn(C(C)=O)nc2-c2ccccc2)S1	inconclusive: 14.6 µM [activator, single point]	

# More structures

SMILES,Potency,re-replication activation
COc1ccc(-c2cc([C@H]3[C@H]4C=CC[C@@H](C)[C@@H]4C(=O)N3Cc3ccccc3)ccc2F)cc1,,inactive: -7.72% [at 9.22 µM]
CCc1nc(N=Nc2c(O)[nH]c3ccccc23)c2c3c(sc2n1)CCC3,inactive,
COC(=O)c1ccc(CN(c2ccc(OC)cc2)S(=O)(=O)c2ccccc2)cc1,"inconclusive: 32.6 µM [activator, partial curve, poor fit]",
CCO[C@H]1OC(C(N)=O)=C[C@@H](c2csc3ccccc23)[C@@H]1CCCO,"inconclusive: 3.26 µM [activator, partial curve, poor fit]",
O=C1CCCN1CCCNC(=S)Nc1ccc(F)cc1,"inconclusive: 0.058 µM [activator, full curve, poor fit]",
Cc1ccc(-c2ccc(/C=N/N3C(=O)C4C5C=CC(CC5)C4C3=O)o2)c([N+](=O)[O-])c1 (stereo not drawn),"inconclusive: 32.6 µM [activator, single point]",
Cc1cccn2c(=O)c3cc(C(=O)NCCc4ccccc4)c(=N)n(CC4CCCO4)c3nc12 (stereo not drawn),inactive,
CCOc1cc(CNCCc2ccc(S(N)(=O)=O)cc2)ccc1OCc1ccc(Cl)cc1,"inconclusive: 29.1 µM [activator, single point]",
COC(=O)c1c(-c2ccc(OC)cc2)oc2ccc(-c3cc(OC)c(OC)c(OC)c3)cc12,"inconclusive: 6.51 µM [activator, partial curve, poor fit]",
CCOC(=O)c1cn(-c2c(Cl)cccc2Cl)c2cc(Cl)c([N+](=O)[O-])cc2c1=O,"inconclusive: 25.9 µM [activator, single point]",
O=C1CN=C(Nc2cccc(C(F)(F)F)c2)N1C1CCCC1,"inconclusive: 29.1 µM [activator, single point]",
CCc1nnc(NC(=O)c2cccc(C(=O)Nc3nnc(CC)s3)n2)s1,"inconclusive: 0.0164 µM [activator, full curve]",
CO/N=C(/CS(=O)Cc1ccc(Cl)cc1)c1ccc(Cl)cc1 (stereo not drawn),inactive,
CC(=O)N1CCc2cc(S(=O)(=O)CCC(=O)N3CCN(c4ccccc4)CC3)ccc21,"inconclusive: 3.26 µM [activator, single point]",
Cn1c(=O)[nH]c(=O)c2c1nc(N1CCCCCC1)n2CCCSc1nc2ccccc2o1,inactive,
Cc1ccc(N2C(=O)C3C(C2=O)C(C(=O)c2ccc(Cl)cc2)N2CCCC32)cc1 (stereo not drawn),inactive,
Cc1c(CN2CCc3c([nH]c4ccccc34)C2CC(C)C)cnn1C (stereo not drawn),"inconclusive: 29.1 µM [activator, partial curve, poor fit]",
O=C(/C=C/c1ccccc1[N+](=O)[O-])N1CCN(c2ccc(F)cc2)CC1,inactive,
COc1ccc(C(=O)Nc2ccc(C3=NNC(=O)CC3C)cc2NC(=O)c2ccc(OC)cc2)cc1 (stereo not drawn),"inconclusive: 29.1 µM [activator, single point]",
Cc1cc(Cl)c2oc(C(=O)N3CCN(c4ccncc4)CC3)c(C)c2c1,active: 11.6 µM,
CCOc1ccc(N2CC(C(=O)NCCc3ccc(S(N)(=O)=O)cc3)CC2=O)cc1 (stereo not drawn),inactive,

# An excerpt from above in order of length of the SMILES, descending:
SMILES,Potency,re-replication activation
COc1ccc(C(=O)Nc2ccc(C3=NNC(=O)CC3C)cc2NC(=O)c2ccc(OC)cc2)cc1 (stereo not drawn),"inconclusive: 29.1 µM [activator, single point]",
Cc1cccn2c(=O)c3cc(C(=O)NCCc4ccccc4)c(=N)n(CC4CCCO4)c3nc12 (stereo not drawn),inactive,
CCO[C@H]1OC(C(N)=O)=C[C@@H](c2csc3ccccc23)[C@@H]1CCCO,"inconclusive: 3.26 µM [activator, partial curve, poor fit]",

# (next part)

SMILES,Potency,re-replication activation
CCCCNC(=O)c1ccccc1C(=O)NCCCC,"inconclusive: 29.1 µM [activator, partial curve, poor fit]",
O=C(OCC(=O)N1CCCC1=O)C1CCN(S(=O)(=O)c2c(Cl)cccc2Cl)CC1,"inconclusive: 29.1 µM [activator, single point]",
CCN(C[C@H]1N[C@@](Cc2ccccc2)(C(=O)OC)[C@H]2C(=O)N(C)C(=O)[C@@H]12)S(=O)(=O)c1ccc(OC)cc1,"inconclusive: 11.6 µM [activator, partial curve, poor fit]",
O=S(=O)(NCCC1CC1(Cl)Cl)c1ccccc1 (stereo not drawn),"inconclusive: 29.1 µM [activator, single point]",
CCOC(=O)C1CCCN(S(=O)(=O)c2ccc3c(c2)N(C(C)=O)CCO3)C1 (stereo not drawn),"inconclusive: 23.1 µM [activator, single point]",
CCN(CC(=O)NCc1ccc(Cl)cc1)C(=O)COc1cccc(Cl)c1,"inconclusive: 29.1 µM [activator, single point]",
CC(O)/C=C/c1ccc2ccccc2n1 (stereo not drawn),"inconclusive: 18.4 µM [activator, single point]",
COCc1ccc(C(=O)N2CCCC(C(=O)c3ccc(Cl)cc3C)C2)o1 (stereo not drawn),"inconclusive: 29.1 µM [activator, single point]",
Cc1cccc(-n2c(N)c(C(=O)NCCN3CCOCC3)c3nc4ccccc4nc32)c1,"inconclusive: 2.91 µM [activator, partial curve, poor fit]",
CSc1ccc(/C=C(/NC(=O)c2ccco2)C(=O)N2CCCCC2)cc1,inactive,
O=C(Nc1ncc([N+](=O)[O-])s1)c1cccc([N+](=O)[O-])c1,inactive,
O=C(CSc1ccc2nnc(CCNC(=O)c3ccc(F)cc3)n2n1)NCc1ccco1,"inconclusive: 29.1 µM [activator, single point]",
Cc1ccc(/C=N/Nc2nncc(-c3ccccc3)n2)o1,"inconclusive: 0.116 µM [activator, full curve, poor fit]",
O=C(CN(c1cccc(Cl)c1)S(=O)(=O)c1ccc(Cl)cc1)N1CCc2ccccc2C1,"inconclusive: 0.92 µM [activator, partial curve, poor fit]",
COc1ccc(CN(C(=O)c2snc(C(N)=O)c2N)C(C(=O)NC2CCCC2)c2ccc(OC)c(OC)c2)cc1 (stereo not drawn),"inconclusive: 29.1 µM [activator, single point]",
COc1ccc(C2OC(=O)CC2C(=O)NC2CCCCCC2)cc1OC (stereo not drawn),"inconclusive: 23.1 µM [activator, single point]",
CN(C)S(=O)(=O)c1ccc(NC(=O)Cn2c(-c3ccccc3)noc2=O)cc1,"inconclusive: 6.51 µM [activator, partial curve, poor fit]",
CCCNC(=O)c1nnsc1S(=O)c1ccc(Cl)cc1 (stereo not drawn),active: 23.1 µM,
N#Cc1ccc(C(=O)OCC(=O)Nc2cccnc2Cl)cc1,inactive,
O=[N+]([O-])c1ccccc1/C=C/CN1CCCC(CO)C1 (stereo not drawn),inactive,
COc1ccc(OCC(O)CN2CCC(CN3C(=O)c4cccc5cccc(c45)C3=O)CC2)cc1 (stereo not drawn),"inconclusive: 29.1 µM [activator, single point]",

# Source: PubChem BioAssay AID624297 (National Center for Advancing Translational Sciences (NCATS), 2012)
